Library screen at single concentrations

Measurements from “University of Dundee, Small-Polar-MMV Screening Library” (2021), ChEMBL document CHEMBL3988442.

T. brucei: 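Whole-parasite assay of Trypanosoma brucei over 72 hours; the read-out is not stated. Compounds at 30 µM. The record gives no direction; compounds that gave an IC50 in retests scored well above the rest, so higher reads as stronger inhibition. Values scatter widely below zero; nearly all retest evidence comes from the higher of the two concentrations used. Size under these conditions: about 64,000 compounds, about 940 of them at 50% or above in at least one test.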
Toxoplasma: 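Assay of Toxoplasma gondii numbers, read through their beta-galactosidase reporter with a colour substrate. Tested at 10 µM. Higher reads as fewer parasites (inferred from which compounds were picked for retests). About 67,000 compounds were tested under these conditions; 0.38% (about 260) showed 50% or more at least once.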

The filed quantity is “Percent Effect” (%). The controls that fix the scale are not given in the record; negative values are as filed. The compounds are a random part of those screened. A dash means the value is not listed here; it may have been measured.

structure,T. brucei,Toxoplasma
COc1ccc(NC(=O)c2cc3c([nH]c2=O)CCCC3=O)c(OC)c1,-17.6%,1.267%
O=C(O)C(F)(F)F.O=C(c1ccc(F)cc1)N1CCC2(CCCN2CC2CC2)CC1,-16.43%,4.013%
COc1cc(C)nc(N2CCN(C(=O)c3ccn(C)c(=O)c3)CC2)n1,-7.649%,-21.43%
Cc1c(C(=O)NC2CC(C)(C)NC(C)(C)C2)cnn1-c1ccc(F)cc1,5.208%,0.8954%
CC(C)(C)S(=O)(=O)c1ccc(N2CCN(c3ccccn3)CC2)nn1,11.85%,10.3%
CC(C)(C)OCCN1CCCC1c1nc(Cc2ccc(F)cc2)no1 (stereo not given),-69.4%,-0.7088%
CC(C)N1CCC(N2CCN(C3CCC3)CC2CCO)CC1 (stereo not given),-13.26%,-4.653%
Cc1cnc(CCN(C)C(=O)c2ccc(O)nc2C)s1,-9.547%,-13.48%
Cc1ccc(C(=O)N2CCC3(CC2)CC(c2ccccc2)C(=O)N3)o1 (stereo not given),-7.409%,24.39%
CCC(CO)NCc1ccc(-c2ccc(Cl)cc2)o1.Cl (stereo not given),19.35%,6.46%
NC(=O)CN1C[C@@H](c2ccccc2F)[C@@]2(CCCCC(=O)N2)C1,-20.69%,6.535%
COCCC(=O)N1CCC2(CC1)CN(C(C)=O)Cc1ccccc1O2,-18.34%,-9.061%
CCn1nc(C)c2nnn(CC(=O)Nc3ccc(C)cc3)c(=O)c21,4.333%,5.455%
Cc1cc(CN2C[C@@H](C)[C@@]3(CCN(C)C3=O)C2)oc1C.O=C(O)C(F)(F)F,-59.27%,-4.153%
CCCn1cc(NC(=O)c2cccnc2O)ccc1=O,3.009%,10.91%
Oc1ccccc1-c1n[nH]c(C2CCCO2)n1 (stereo not given),-66.63%,-46.04%
CCOc1ccnc(N2CCN(C(=O)c3ccc(C#N)cc3)CC2)n1,2.596%,-2.637%
[H][C@]12CO[C@@H](CNS(C)(=O)=O)[C@@]1([H])CCN(C(=O)c1cccn1C)C2,4.176%,5.183%
Cn1cnc2c1CCN(Cc1csc(-c3ccco3)n1)C2,-17.77%,-6.182%
COCCCNC(=O)c1cc(-c2cnc(N(C)C)nc2)cn1CC1CC1.O=C(O)C(F)(F)F,19.66%,9.102%
CC(C)n1cc(S(=O)(=O)N2CCSCC2)cn1,-23.45%,32.53%
CCn1nc(C)c2nnn(CC(=O)Nc3c(C)cccc3C)c(=O)c21,17.23%,6.575%
O=S1(=O)CCC(n2cc(CNCC3(c4ccccc4)CC3)cn2)C1 (stereo not given),-70.15%,-7.599%
CCn1nc(C(=O)N2CCCC2c2noc(C3CC3)n2)ccc1=O (stereo not given),-65.4%,0%
[H][C@@]12CCCC[C@@]1([H])CN(Cc1nc(-c3ccsc3)oc1C)CC2,-40.07%,6.282%
O=C(N1CCCC1)N1CCOCC2(C1)CN(c1ccccc1)C(=O)CO2 (stereo not given),-5.011%,13.83%
Cc1nc(O)c2nnn(C[C@H]3CCCN3C(=O)c3cccc(F)c3)c2n1,13.17%,5.317%
CCN(Cc1ccc2c(c1)OCO2)C(=O)NCc1nc(C)cs1,17.42%,3.127%
O=C(CN1CCOC(Cn2cccn2)C1)Nc1nncs1 (stereo not given),-24.09%,8.801%
CN(Cc1ccncc1)C1COC2(CCN(c3ncc(F)cn3)CC2)C1.O=C(O)C(F)(F)F.O=C(O)C(F)(F)F (stereo not given),-12.49%,-1.652%
CN(C)CCN1CCc2ncc(CN(C)Cc3ccco3)n2CC1,-52.96%,0.1596%
O=C(CCn1nnc2ccccc2c1=O)N(CC1CCOC1)C1CC1 (stereo not given),-21.61%,-2.839%
O=C(O)C(F)(F)F.[H][C@@]12CCN(c3ncccn3)[C@@]1([H])CCN2S(=O)(=O)c1cccs1,-18.88%,-1.207%
NC(=O)NC(CC(=O)N1CCc2sccc2C1)c1ccccc1F (stereo not given),-45.3%,3.926%
CC(NCc1cnc(C2CCC2)s1)c1ccccc1-n1cccn1 (stereo not given),-7.453%,-26.03%
Cc1noc(C(C)N2CCN(Cc3nc(C)c(C)o3)CC2)n1 (stereo not given),-,11.51%
CCc1nc2c(NCC3COc4c(cccc4OC)C3)ncnc2o1 (stereo not given),13.15%,-0.2882%
COc1ccnc(N2CCC(=O)N(CC3CC3)C(C(C)C)C2)n1 (stereo not given),-29.28%,-4.217%
Cc1nc(CC(=O)N2CCN(c3ccc(N(C)C)cc3)CC2)cs1,21.43%,5.051%
O=C(O)C(F)(F)F.[H][C@@]12CCN(Cc3ccoc3)C[C@@]1([H])O[C@H](C(=O)NC(C)C)C2,-55.42%,-21.57%

Repeated from the top, 3 entries:

With COc1ccc(NC(=O)c2cc3c([nH]c2=O)CCCC3=O)c(OC)c1 the screen gave T. brucei: -17.6%; Toxoplasma: 1.267%.
With O=C(O)C(F)(F)F.O=C(c1ccc(F)cc1)N1CCC2(CCCN2CC2CC2)CC1 the screen gave T. brucei: -16.43%; Toxoplasma: 4.013%.
With COc1cc(C)nc(N2CCN(C(=O)c3ccn(C)c(=O)c3)CC2)n1 the screen gave T. brucei: -7.649%; Toxoplasma: -21.43%.